Test results as given in US20140178899A1.
No constants are given. Whether binding was seen depends on the method and setting. In cells and extracts the contact can be indirect. Some entries that bind do so weakly or less than the wild type. For some assays here: Sequences can lack the tags named with a protein.

Sequences of proteins named here, by UniProt entry; tags and fusion partners are left off. A change or cut given only in a name is not applied to a line headed by its entry.
UniProt P10415: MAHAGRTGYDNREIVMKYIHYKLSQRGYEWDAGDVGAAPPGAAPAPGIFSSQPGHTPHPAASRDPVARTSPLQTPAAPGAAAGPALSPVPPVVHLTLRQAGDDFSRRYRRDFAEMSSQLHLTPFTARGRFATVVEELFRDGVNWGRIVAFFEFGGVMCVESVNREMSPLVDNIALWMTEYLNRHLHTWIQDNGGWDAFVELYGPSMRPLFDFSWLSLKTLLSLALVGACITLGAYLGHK
UniProt Q07817: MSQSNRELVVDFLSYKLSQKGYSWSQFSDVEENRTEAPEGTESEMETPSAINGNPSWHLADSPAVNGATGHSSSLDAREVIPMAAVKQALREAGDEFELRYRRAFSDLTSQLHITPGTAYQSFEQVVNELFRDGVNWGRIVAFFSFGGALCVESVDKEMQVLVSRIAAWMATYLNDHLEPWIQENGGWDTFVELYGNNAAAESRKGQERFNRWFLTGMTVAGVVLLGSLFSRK
UniProt Q14457: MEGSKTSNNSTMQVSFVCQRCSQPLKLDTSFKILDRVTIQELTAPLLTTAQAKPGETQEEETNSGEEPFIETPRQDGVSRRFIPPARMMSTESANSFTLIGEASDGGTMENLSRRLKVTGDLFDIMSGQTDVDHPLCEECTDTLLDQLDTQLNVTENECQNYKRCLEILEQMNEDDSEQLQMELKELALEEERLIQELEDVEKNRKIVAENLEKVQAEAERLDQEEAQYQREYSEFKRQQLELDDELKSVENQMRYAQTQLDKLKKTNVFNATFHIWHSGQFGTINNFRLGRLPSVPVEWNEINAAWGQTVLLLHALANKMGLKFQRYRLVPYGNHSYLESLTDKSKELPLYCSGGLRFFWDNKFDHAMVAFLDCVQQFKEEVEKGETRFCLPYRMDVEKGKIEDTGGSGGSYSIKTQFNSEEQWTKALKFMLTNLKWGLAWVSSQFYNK

Key:
[1] = biological target: endogenous Bcl-2 pulled down from cell extracts (COS7 or HEK293T) (UniProt P10415); experiment: GST pull-down from cell extract, Western blot
[2] = biological target: endogenous DAPk from HEK293T cell extracts (UniProt P53355); experiment: GST pull-down from cell extract, Western blot
[3] = biological target: Bcl-XL (over-expressed by transfection in HEK293 cells) (UniProt Q07817); experiment: co-immunoprecipitation from co-transfected HEK293 cells
[4] = biological target: Bcl-XL (over-expressed by transfection in HEK293 cells) (UniProt Q07817); experiment: anti-Flag co-immunoprecipitation from co-transfected HEK293 cells
[5] = biological target: T1, HA-tagged activated DAPk (ΔCaM DAPk), lacking its calmodulin (CaM)-regulatory domain (UniProt P53355); experiment: anti-Flag co-immunoprecipitation from HEK293 cells co-transfected with HA-ΔCaM DAPk
T1 sequence: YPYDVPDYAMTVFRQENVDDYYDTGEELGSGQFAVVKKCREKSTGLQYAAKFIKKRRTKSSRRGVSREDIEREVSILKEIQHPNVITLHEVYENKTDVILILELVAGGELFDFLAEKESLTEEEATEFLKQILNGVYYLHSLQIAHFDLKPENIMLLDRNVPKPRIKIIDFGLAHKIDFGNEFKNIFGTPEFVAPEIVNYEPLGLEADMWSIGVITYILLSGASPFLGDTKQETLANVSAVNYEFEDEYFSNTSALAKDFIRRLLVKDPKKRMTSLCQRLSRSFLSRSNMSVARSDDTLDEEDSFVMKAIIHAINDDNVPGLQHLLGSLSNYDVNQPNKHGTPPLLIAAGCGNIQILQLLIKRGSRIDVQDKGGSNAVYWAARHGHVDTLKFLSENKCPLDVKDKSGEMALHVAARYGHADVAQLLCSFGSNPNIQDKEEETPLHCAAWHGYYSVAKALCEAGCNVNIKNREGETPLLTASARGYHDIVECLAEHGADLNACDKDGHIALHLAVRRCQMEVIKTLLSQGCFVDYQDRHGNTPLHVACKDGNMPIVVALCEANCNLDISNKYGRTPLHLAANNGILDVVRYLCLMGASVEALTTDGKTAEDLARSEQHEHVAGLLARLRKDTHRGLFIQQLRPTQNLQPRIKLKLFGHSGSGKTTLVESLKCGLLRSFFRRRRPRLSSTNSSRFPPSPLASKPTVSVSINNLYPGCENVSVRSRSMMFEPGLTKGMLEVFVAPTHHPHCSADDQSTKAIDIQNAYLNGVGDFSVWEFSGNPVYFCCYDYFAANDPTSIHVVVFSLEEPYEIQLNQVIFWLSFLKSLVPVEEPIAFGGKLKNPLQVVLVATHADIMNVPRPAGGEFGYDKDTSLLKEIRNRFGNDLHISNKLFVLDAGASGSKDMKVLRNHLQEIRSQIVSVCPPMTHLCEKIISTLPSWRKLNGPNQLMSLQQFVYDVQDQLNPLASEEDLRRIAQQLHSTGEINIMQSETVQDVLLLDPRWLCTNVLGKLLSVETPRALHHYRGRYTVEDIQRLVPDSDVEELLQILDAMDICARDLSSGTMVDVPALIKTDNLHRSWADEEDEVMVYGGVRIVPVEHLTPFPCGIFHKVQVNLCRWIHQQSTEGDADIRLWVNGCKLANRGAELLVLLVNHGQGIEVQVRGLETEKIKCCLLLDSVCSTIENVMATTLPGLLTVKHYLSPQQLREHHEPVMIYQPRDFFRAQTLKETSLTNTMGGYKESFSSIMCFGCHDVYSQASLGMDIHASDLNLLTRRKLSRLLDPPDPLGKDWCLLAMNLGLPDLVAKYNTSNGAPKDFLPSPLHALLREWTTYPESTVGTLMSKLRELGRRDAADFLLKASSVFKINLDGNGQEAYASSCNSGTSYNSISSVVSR

[6] = biological target: endogenous DAPk from HEK293T cell extracts (UniProt P53355); experiment: co-immunoprecipitation from HEK293T cells
[7] = biological target: endogenous DAPk from HEK293T cell extracts (UniProt P53355); experiment: anti-Flag co-immunoprecipitation from HEK293T cells
[8] = biological target: Bcl-2 (co-transfected in HEK293T cells) (UniProt P10415); experiment: co-immunoprecipitation from co-transfected HEK293T cells
HA-tagged DAPk = HA-tagged DAPk (UniProt P53355); experiment: anti-Flag co-immunoprecipitation from co-transfected HEK293 cells
[9] = biological target: Bcl-2 (co-transfected in HEK293T cells) (UniProt P10415); experiment: anti-Flag co-immunoprecipitation from co-transfected HEK293T cells, anti-Bcl-2 blot

Measured: binding

GST-Beclin-1 fusion protein (wild type, bacterially purified, not phosphorylated) (from UniProt Q14457 1-450)
binds: [1] | [2]

Flag-Beclin-1 T119A (phospho-silencing mutant) (from UniProt Q14457 1-450)
binds: [3] | [4] | [5]

Flag-tagged Beclin-1 (wild type) (from UniProt Q14457 1-450)
binds: [6] | [7] | [8] | HA-tagged DAPk | [5] | [9]
